Changes are numbered by the printed parent chain. No constants are given. Whether binding was seen depends on the method and setting. In cells and extracts the contact can be indirect. For some assays here: Binding calls can cover weak binding; strength is not graded here. For some assays here: Where a sequence is shown, tags or fusion partners need not be part of it.
Experiments:
His-SNX32ΔC = biological target: T1, His-SNX32ΔC (UniProt Q86XE0); test: pull-down; 20 µg of His SNX32ΔC bound to Ni-NTA beads, incubated with membrane-enriched HeLa cell lysate for 2 hr at 4°C; SDS-PAGE and immunoblot; only the target purified
T1 sequence: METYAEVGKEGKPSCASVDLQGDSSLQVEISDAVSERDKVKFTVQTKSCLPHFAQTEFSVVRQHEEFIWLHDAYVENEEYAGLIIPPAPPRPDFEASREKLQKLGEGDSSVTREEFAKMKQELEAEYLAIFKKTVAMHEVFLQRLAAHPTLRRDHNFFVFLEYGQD

mCherry-SNX32 = biological target: T2, mCherry-SNX32 (UniProt Q86XE0); test: co-IP; mCherry nanobody-based immunoprecipitation (mCBP-IP): GST-tagged mCBP on glutathione sepharose beads incubated with U87MG cell extracts overexpressing mCherry-tagged SNX proteins; endogenous BSG detected by immunoblot
T2 sequence: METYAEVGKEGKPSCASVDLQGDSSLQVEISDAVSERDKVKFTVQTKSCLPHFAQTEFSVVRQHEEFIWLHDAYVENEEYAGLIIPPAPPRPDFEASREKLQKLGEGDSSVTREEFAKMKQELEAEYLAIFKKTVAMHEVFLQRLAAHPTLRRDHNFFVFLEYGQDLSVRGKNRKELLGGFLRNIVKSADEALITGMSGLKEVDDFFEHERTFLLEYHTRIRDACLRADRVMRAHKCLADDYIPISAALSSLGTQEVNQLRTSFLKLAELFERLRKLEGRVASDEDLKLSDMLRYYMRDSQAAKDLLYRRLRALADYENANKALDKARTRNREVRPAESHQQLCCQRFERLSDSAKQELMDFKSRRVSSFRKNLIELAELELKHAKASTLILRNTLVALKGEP

mCherry-SNX6 = biological target: T3, mCherry-SNX6 (UniProt Q9UNH7); test: as above
T3 sequence: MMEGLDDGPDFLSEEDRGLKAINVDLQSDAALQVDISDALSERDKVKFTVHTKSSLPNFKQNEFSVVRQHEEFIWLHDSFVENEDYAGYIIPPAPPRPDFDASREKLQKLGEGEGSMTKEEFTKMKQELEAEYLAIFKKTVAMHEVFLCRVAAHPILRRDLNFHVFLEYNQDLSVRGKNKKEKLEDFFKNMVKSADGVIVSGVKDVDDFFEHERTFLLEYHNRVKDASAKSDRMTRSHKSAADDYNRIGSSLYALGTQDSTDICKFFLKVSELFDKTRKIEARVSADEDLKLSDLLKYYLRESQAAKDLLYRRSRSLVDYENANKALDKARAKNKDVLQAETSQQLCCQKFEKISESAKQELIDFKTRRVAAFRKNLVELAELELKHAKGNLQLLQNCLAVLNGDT

GFP-SNX32 = biological target: T4, GFP-SNX32 (UniProt Q86XE0); test: co-IP; GBP-IP of GFP-tagged SNX proteins from lysates of transfected cells (HeLa by the text; HEK293T by the legends of Figure 6A, C and I; the legend of Figure 6I also says GFP trap); endogenous TfR, CIMPR, SNX1 or BSG detected by immunoblot; values are the ratio of prey to GFP band intensity
T4 sequence: T2 sequence

GFP-SNX32 F131D = biological target: T5, GFP-SNX32 F131D (UniProt Q86XE0); test: as above
T5 sequence: T2 sequence with F131D

- binding (His-SNX32ΔC): binds
- binding (mCherry-SNX32): binds
- binding (mCherry-SNX6): no binding
- binding (GFP-SNX32): binds
- binding (GFP-SNX32 F131D): no binding
Substance: Basigin (BSG) (from UniProt P35613-2) (receptor)

From publication PMC10219652, “Insights into cargo sorting by SNX32 and its role in neurite outgrowth” (eLife, 2023)
